Data published in PubChem BioAssay AID493014 (National Center for Advancing Translational Sciences (NCATS), 2011).
Hit rate of the full screen: of about 340,000 compounds, about 170 (0.05%) were called active. Inconclusive means that the source gave no clear call. Such entries were picked first, then a sample of the others. Calls follow the shape of the dose curve; as a rule, active = well fitted inhibition curve with a large enough effect in the signal ratio, with a control signal flat (not every such curve was filed as active); inconclusive = small, poorly fitted or top-dose-only effect, or effect the other way, or a change in a side signal; inactive = flat fitted curve, though single readings scatter; the % refers to the signal ratio. Potencies beside an inconclusive call are fits to weak or partial responses and may not hold up.

Experiment: qHTS Assay to Find Inhibitors of Chronic Active B-Cell Receptor Signaling;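 as to activity change, negative = inhibition: plate controls were basal doxycycline-induced cells for no effect and cells given 10 µM MG132 for full effect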
Settings: ABC-DLBCL IkBa-CBG/CBR reporter, luminescence ratio (green luciferase fused to IkBa over red control in TMD8 lymphoma cells), 4 h; activity change, negative = inhibition: at 46.1 µM (top of the series)
Procedure, shortened: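 TMD8 ABC-DLBCL cells carrying doxycycline-inducible green luciferase fused to IkappaBalpha plus unfused red luciferase were exposed to compounds (up to 46 uM) for 4 hrs at 37C. Activity came from the overlap-corrected green/red luminescence ratio.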
Potency is read from the fitted curve at half-maximal effect.

| SMILES | Potency | activity change, negative = inhibition |
| --- | --- | --- |
| CCOC(=O)c1c(-c2ccccc2)oc2ccc(OC(=O)N(C)C)cc12 | inconclusive: 1.84 µM [rising, full curve] |  |
| COc1ccc(/C=N/NC(=O)c2ccoc2C)cc1COc1c(C)cccc1C |  | inconclusive: -6.96% |
| COc1ccc(C2SCC(=O)Nc3c2c(C)nn3-c2ccccc2)cc1 (stereo not drawn) |  | inconclusive: -16.2% |
| COc1cc(/C=C2\C(=O)NC(=O)N(c3ccccc3)C2=O)cc(OC)c1O | inconclusive: 29.1 µM [falling, single point] |  |
| CCOc1cc(/C=C2/C(=O)NC(=O)N(c3ccc(CC)cc3)C2=O)ccc1OC(=O)c1cccs1 |  | inconclusive: 2.17% |
| O=C1/C(=C\c2cc3c(cc2Br)OCO3)N2CCC1CC2 | inconclusive: 32.6 µM [falling, single point] |  |
| CC(C)c1ccc(/C=C/C(=O)CCC(=O)O)cc1 |  | inconclusive: -2.59% |
| COC(=O)C1=C(c2ccc(F)cc2OCc2ccccc2)C[C@@H]2CC[C@H]1N2C(=O)NC1Cc2ccccc2C1 |  | inconclusive: -1.68% |
| COc1ccc2cc(C(=O)C3CCCN(C4CCOCC4)C3)ccc2c1 (stereo not drawn) | inconclusive: 28.2 µM [falling, single point] |  |
| N#CC1=C(N)Oc2c(c(=O)sc3ccccc23)C1c1cccnc1 (stereo not drawn) |  | inactive |
| Cc1ccc(C2N3CCCN23)cc1 (stereo not drawn) |  | inconclusive: 8.63% |
| Cc1ccc(-c2cc(-c3ccc(C)cc3)[n+](-c3ccccc3)c(-c3ccc(C)cc3)c2)cc1 | inconclusive: 20.6 µM [falling, single point] |  |
| COc1cc(C=C2C(=O)NC(=O)NC2=O)ccc1OCc1ccc([N+](=O)[O-])cc1 |  | inactive |
| COc1ccc(NC(=O)N2CCC3(CC2)OCCO3)cc1OC |  | inactive |
| Clc1ccc2c(c1)C(c1ccccc1Cl)=NCc1nnc(Br)n1-2 |  | inconclusive: -13.2% |
| CC12CC[C@H]3[C@@H](CCC4(O)C[C@H](O)CCC34/C=N/NC(=O)c3ccccc3Cl)C1(O)CCC2C1=CC(=O)OC1 (stereo partly drawn) | inconclusive: 10 µM [falling, partial curve] |  |
| COc1ccc(C(=O)C2CCCN(Cc3cccc(C)n3)C2)c(OC)c1 (stereo not drawn) |  | inactive |
| COc1ccc(Cc2nccc3cc(OC)c(OC)cc23)cc1OC | inconclusive: 20.6 µM [falling, partial curve] |  |
| O=C(O)Cn1cc(/C=C2\C(=O)NC(=O)N(c3ccc(Br)cc3)C2=O)c2ccccc21 |  | inconclusive: 7.95% |
| COc1ccc(C=O)cc1 |  | inactive |
| CCN1CCN(C(=O)Cc2ccccc2OC)CC1 |  | inconclusive: -24.5% |

| SMILES | Potency | activity change, negative = inhibition |
| --- | --- | --- |
| CN(C)CC1CCCCC1=O (stereo not drawn) |  | inconclusive: 4.02% |
| O=C(Nc1ccncc1)c1cccn(Cc2ccccc2)c1=O | inconclusive: 35.5 µM [rising, partial curve, poor fit] |  |
| Cc1nc(Cl)sc1C(=O)Nc1ccc2ccccc2c1 |  | inconclusive: 8.9% |
| O=C(N/N=C/c1c(O)n(CCC2=CCCCC2)c(=S)[nH]c1=O)c1ccccc1 | inconclusive: 5.17 µM [falling, single point] |  |
| O=C(N/N=C/c1c[nH]c2ccccc12)c1ccn(Cc2ccc(Cl)cc2)n1 | inconclusive: 12.6 µM [falling, partial curve] |  |
| CN1CCN(CCC(C#N)(c2ccccc2)c2ccccc2)CC1 |  | inactive |
| Cc1ccc(O)c(C)c1 |  | inactive |
| N#CC1=C(N)Oc2c(c(=O)oc3ccccc23)C1c1ccc([N+](=O)[O-])o1 (stereo not drawn) |  | inconclusive: -6.05% |
| Cn1c(=O)oc2cc(S(=O)(=O)N3CCC(C(=O)NCCc4ccccc4)CC3)ccc21 |  | inconclusive: 4.36% |
| COc1ccccc1CCNC1CCC(C(C)(C)C)CC1 (stereo not drawn) | inconclusive: 25.1 µM [falling, single point] |  |
| O=C(COC(=O)Cc1ccccc1)Nc1cc(S(=O)(=O)N2CCOCC2)ccc1N1CCCC1 |  | inconclusive: -2.01% |
| Oc1ccc(/C=N/NP(=S)(c2ccccc2)c2ccccc2)cc1O |  | inactive |
| COc1ccc(-n2c(SC)nc3ccccc3c2=O)cc1 |  | inconclusive: -0.397% |
| O=c1c2ccccc2nc(N2CCCC2)n1-c1ccc(Cl)cc1 |  | inconclusive: 17.4% |
| CSCCC(NS(=O)(=O)c1ccc2c(c1)oc(=O)n2C)C(=O)NCc1ccc(Cl)cc1 (stereo not drawn) |  | inconclusive: 11.9% |
| COc1cc(C(=O)OC2C[C@H]3CC[C@@H](C2)N3C)ccc1O (stereo partly drawn) |  | inactive |
| CCC1(CC)C(=O)C=CNC1=O |  | inconclusive: 1.93% |
| CCN1/C(=C\C=C\C2=[N+](CC)c3ccccc3C2(C)C)C(C)(C)c2ccccc21 | inconclusive: 9.2 µM [activator, partial curve] |  |
| CC1CCC(C(C)C)C(OC(=O)Cn2c(COc3ccccc3)[n+](C)c3ccccc32)C1 (stereo not drawn) |  | inconclusive: 18% |
| Cc1cccc(-c2nc(Nc3ccc(O)cc3)c3ccccc3n2)c1 |  | inconclusive: -3.19% |
| CN(C)C(=O)Oc1ccc(Br)cc1C(=O)Nc1ccc(F)c(Cl)c1 | inconclusive: 12.6 µM [falling, partial curve] |  |

Quoted from the results shown (22 entries):

| SMILES | Potency | activity change, negative = inhibition |
| --- | --- | --- |
| COc1ccc(Cc2nccc3cc(OC)c(OC)cc23)cc1OC | inconclusive: 20.6 µM [falling, partial curve] |  |
| O=C(O)Cn1cc(/C=C2\C(=O)NC(=O)N(c3ccc(Br)cc3)C2=O)c2ccccc21 |  | inconclusive: 7.95% |
| COc1ccc(C=O)cc1 |  | inactive |
| CCN1CCN(C(=O)Cc2ccccc2OC)CC1 |  | inconclusive: -24.5% |
| CN(C)CC1CCCCC1=O (stereo not drawn) |  | inconclusive: 4.02% |
| O=C(Nc1ccncc1)c1cccn(Cc2ccccc2)c1=O | inconclusive: 35.5 µM [rising, partial curve, poor fit] |  |
| Cc1nc(Cl)sc1C(=O)Nc1ccc2ccccc2c1 |  | inconclusive: 8.9% |
| O=C(N/N=C/c1c(O)n(CCC2=CCCCC2)c(=S)[nH]c1=O)c1ccccc1 | inconclusive: 5.17 µM [falling, single point] |  |
| O=C(N/N=C/c1c[nH]c2ccccc12)c1ccn(Cc2ccc(Cl)cc2)n1 | inconclusive: 12.6 µM [falling, partial curve] |  |
| CN1CCN(CCC(C#N)(c2ccccc2)c2ccccc2)CC1 |  | inactive |
| Cc1ccc(O)c(C)c1 |  | inactive |
| N#CC1=C(N)Oc2c(c(=O)oc3ccccc23)C1c1ccc([N+](=O)[O-])o1 (stereo not drawn) |  | inconclusive: -6.05% |
| Cn1c(=O)oc2cc(S(=O)(=O)N3CCC(C(=O)NCCc4ccccc4)CC3)ccc21 |  | inconclusive: 4.36% |
| COc1ccccc1CCNC1CCC(C(C)(C)C)CC1 (stereo not drawn) | inconclusive: 25.1 µM [falling, single point] |  |
| O=C(COC(=O)Cc1ccccc1)Nc1cc(S(=O)(=O)N2CCOCC2)ccc1N1CCCC1 |  | inconclusive: -2.01% |
| Oc1ccc(/C=N/NP(=S)(c2ccccc2)c2ccccc2)cc1O |  | inactive |
| COc1ccc(-n2c(SC)nc3ccccc3c2=O)cc1 |  | inconclusive: -0.397% |
| O=c1c2ccccc2nc(N2CCCC2)n1-c1ccc(Cl)cc1 |  | inconclusive: 17.4% |
| CSCCC(NS(=O)(=O)c1ccc2c(c1)oc(=O)n2C)C(=O)NCc1ccc(Cl)cc1 (stereo not drawn) |  | inconclusive: 11.9% |
| COc1cc(C(=O)OC2C[C@H]3CC[C@@H](C2)N3C)ccc1O (stereo partly drawn) |  | inactive |
| CCC1(CC)C(=O)C=CNC1=O |  | inconclusive: 1.93% |
| CCN1/C(=C\C=C\C2=[N+](CC)c3ccccc3C2(C)C)C(C)(C)c2ccccc21 | inconclusive: 9.2 µM [activator, partial curve] |  |

Further records follow.

| SMILES | Potency | activity change, negative = inhibition |
| --- | --- | --- |
| O=C1NC(=O)N(Cc2ccc(F)cc2)C(=O)/C1=C\c1ccc([N+](=O)[O-])s1 |  | inconclusive: -3.19% |
| N=C1c2ccccc2CN1NC(=O)c1ccc(Br)o1 |  | inactive |
| O=C(CN1CCOCC1)c1ccc2cc[nH]c2c1 |  | inconclusive: -14% |
| CC1CCCN(CC(=O)c2ccc(Cl)c(Cl)c2)C1 (stereo not drawn) |  | inconclusive: -20% |
| CCOc1cc2[nH]c(=S)n(CCCC(=O)N3CCC4(CC3)OCCO4)c(=O)c2cc1OCC |  | inconclusive: -5.65% |
| O=C(OCC(=O)c1ccc([N+](=O)[O-])cc1)/C(=C\c1ccc(Cl)cc1)NC(=O)c1ccccc1 |  | inconclusive: 6.41% |
| O=C(COc1ccccc1)N1CCN(CC(O)COc2ccccc2)CC1 (stereo not drawn) |  | inactive |
| COc1ccc(-n2c(Cc3cccc([N+](=O)[O-])c3)nc3ccccc3c2=O)cc1 |  | inconclusive: -10.9% |
| COc1ccc(Cn2c(N)c(C(=O)NCc3ccco3)c3nc4ccccc4nc32)cc1OC |  | inconclusive: 3.98% |
| CCC(=NCCO)c1c(O)n(C2CCCCC2)c(=O)[nH]c1=O |  | inactive |
| Cn1cc(/C=C2\C(=O)NC(=O)N(c3ccccc3)C2=O)c2ccccc21 |  | inconclusive: 0.614% |
| COc1ccc(C(Nc2ccccc2)P(=O)(Oc2ccccc2)Oc2ccccc2)cc1 (stereo not drawn) |  | inconclusive: -5.15% |
| Cc1ccc(CN2C3CCCC2CC(NC(=S)NCc2ccccc2)C3)cc1 (stereo not drawn) |  | inactive |
| CC(C)(C)C1CCC(=NNC(=S)NCc2ccccc2)CC1 (stereo not drawn) | inconclusive: 35.5 µM [cytotoxic, single point] |  |
| COC(=O)[C@@H](N)CCCN=C(N)N[N+](=O)[O-] |  | inconclusive: -5.94% |
| O=C(Cc1ccccc1)NC(Cc1ccc(Cl)cc1)C(=O)O (stereo not drawn) |  | inconclusive: 1.08% |
| CCOC(=O)C1(c2ccccc2)CCN(CCC(=O)Nc2ccc(C(=O)OC)cc2)CC1 |  | inactive |
| CC1(C)CC(=O)c2cc(OCC(=O)N3CCN(Cc4ccccc4)CC3)ccc2O1 |  | inactive |
| Cc1cc(N2CCCC2)ccc1C=C(C#N)C#N |  | inactive |
| C=CCN(CC=C)Cc1c[nH]c2ccccc12 |  | inconclusive: -3.63% |
| O=S(=O)(c1ccc(Cl)cc1)N1CN2CCN(C2)C1 |  | inconclusive: -4.79% |

| SMILES | Potency | activity change, negative = inhibition |
| --- | --- | --- |
| NNC(=O)c1ccc(O)cc1 | inconclusive: 0.326 µM [cytotoxic, full curve, poor fit] |  |
| COc1ccc(S(=O)(=O)N(CC(=O)NCc2ccccc2OC)c2ccc(C)cc2)cc1 |  | inconclusive: -8.09% |
| CN(C)c1ccc(C(=O)NN2C(=O)c3ccccc3C2=O)cc1 | inconclusive: 35.5 µM [falling, single point] |  |
| O=c1[nH]c(O)c(N=Nc2ccc(SC(F)F)cc2)c(=O)[nH]1 |  | inactive |
| CCCCCCCn1c(=O)c(C(=O)Nc2cnccn2)c(O)c2ccccc21 |  | inactive |
| N#CCCn1cc(C(=O)Nc2ccc([N+](=O)[O-])cc2)c(-c2ccc3c(c2)OCCO3)n1 | inconclusive: 16.4 µM [falling, partial curve, poor fit] |  |
| O=C(Cn1c(=O)oc2ccccc21)N1CCN(c2ccc(N3CCOCC3)nn2)CC1 |  | inconclusive: 6.53% |
| COC(=O)C1=C(c2ccc3ccccc3c2)C[C@@H]2CC[C@H]1N2C(=O)N1CCCCC1 |  | inactive |
| O=c1[nH]c(=S)n(CCC2=CCCCC2)c(O)c1C=NC1CCN(Cc2ccccc2)CC1 |  | inconclusive: -2.41% |
| O=C(Nc1cccc2ccccc12)N1CCC2(CC1)OCCO2 |  | inconclusive: -17.8% |
| COc1ccccc1-n1c(O)c(C=NCc2ccc3c(c2)OCO3)c(=O)[nH]c1=O |  | inconclusive: -0.677% |
| CCOCN(C(=O)CCl)c1c(C)cccc1CC |  | inconclusive: 0.528% |
| COc1ccc(Cc2c(O)[nH]c(=S)[nH]c2=O)cc1 |  | inactive |
| O=C(NC1(C(F)(F)F)Oc2ccc(Cl)cc2O1)N1CCC2(CC1)OCCO2 (stereo not drawn) |  | inconclusive: 31.8% |
| CSc1ccc(C(=O)C2CCCN(Cc3cccnc3)C2)cc1 (stereo not drawn) |  | inactive |
| CC(C)(C)NCC(O)c1cc(Cl)c(N)c(Cl)c1 (stereo not drawn) |  | inconclusive: -2.92% |
| COC(=O)C1=C(c2ccc(Cl)c(C(F)(F)F)c2)C[C@@H]2CC[C@H]1N2C(=O)NCC1CC1 |  | inconclusive: -12.4% |
| Cc1ccccc1-[n+]1c(-c2ccccc2)cc(-c2ccccc2)cc1-c1ccccc1 |  | inconclusive: 0.568% |
| O=C(N/N=C/c1c(O)n(CCc2ccccc2)c(=O)[nH]c1=O)c1ccccc1 | inconclusive: 5.62 µM [falling, partial curve] |  |
| CS(=O)(=O)NNP(=O)(NNS(C)(=O)=O)NC(=O)c1ccccc1 | inconclusive: 17.8 µM [falling, partial curve, poor fit] |  |
